Data as given in PubChem BioAssay AID1159584 (Peter MacCallum Cancer Centre, 2016)

Aim: 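Genes whose loss is lethal only together with E-cadherin loss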 (primary screen)
Cell system: human MCF10A breast epithelial cells, parental and CDH1-null
Reagents: siRNA against human genes
Read-out: 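Cell viability by CellTiter-Glo ATP luminescence, each line scaled to the mean of mock wells across plates, then CDH1-null over parental ratio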
Reading the numbers: CDH1-null / parental viability ratio: higher = CDH1-null cells survive relatively better than parental
This is a random part of about 18,000 reagents. The numbers tell different reagents against one gene apart. Further read-outs or replicates are left out here. Not stated in the record: the amount of reagent, the time to read-out.

For GABPB2 (GeneID 126626), what was measured?
CDH1-null / parental viability ratio: 0.84

What did the screen give for RHOH (GeneID 399)?
CDH1-null / parental viability ratio: 0.78

What is on record for PUSL1 (GeneID 126789)?
CDH1-null / parental viability ratio: 1.01

What did the screen give for FRA10AC1 (GeneID 118924)?
CDH1-null / parental viability ratio: 1.14

With NR2C2AP (GeneID 126382), how do the results read?
CDH1-null / parental viability ratio: 0.81

How did the screen score RNASE11 (GeneID 122651)?
CDH1-null / parental viability ratio: 1.09

For MTR (GeneID 4548), how do the results read?
CDH1-null / parental viability ratio: 1.12

What did the screen give for PGGHG (GeneID 80162)?
CDH1-null / parental viability ratio: 0.81

How did the screen score CTBP1-DT (GeneID 92070)?
CDH1-null / parental viability ratio: 1.13

For CACNB1 (GeneID 782), how do the results read?
CDH1-null / parental viability ratio: 1.29

Which result is listed for S100A7 (GeneID 6278)?
CDH1-null / parental viability ratio: 1.09

How did the screen score AKR1B10 (GeneID 57016)?
CDH1-null / parental viability ratio: 1.05

For AMY2B (GeneID 280), how do the results read?
CDH1-null / parental viability ratio: 0.91

With IGLL1 (GeneID 3543), what was measured?
CDH1-null / parental viability ratio: 1.24

For SCLY (GeneID 51540), how do the results read?
CDH1-null / parental viability ratio: 1.11

For UBR1 (GeneID 197131), how do the results read?
CDH1-null / parental viability ratio: 0.87

3 entries already listed, ordered by “CDH1-null / parental viability ratio”, high to low:
IGLL1 (GeneID 3543): CDH1-null / parental viability ratio = 1.24
AKR1B10 (GeneID 57016): CDH1-null / parental viability ratio = 1.05
AMY2B (GeneID 280): CDH1-null / parental viability ratio = 0.91

Next records:
What is on record for LIF (GeneID 3976)?
CDH1-null / parental viability ratio: 1.11

For ERBB4 (GeneID 2066), what was measured?
CDH1-null / parental viability ratio: 1.03

For NECAP2 (GeneID 55707), what does the deposit list?
CDH1-null / parental viability ratio: 0.84

Which result is listed for TACR2 (GeneID 6865)?
CDH1-null / parental viability ratio: 1.31

With RNF208 (GeneID 727800), how do the results read?
CDH1-null / parental viability ratio: 0.75

What did the screen give for S100A13 (GeneID 6284)?
CDH1-null / parental viability ratio: 0.86

Which result is listed for SELPLG (GeneID 6404)?
CDH1-null / parental viability ratio: 0.9

With GRINA (GeneID 2907), how do the results read?
CDH1-null / parental viability ratio: 1.03

What is on record for NRXN3 (GeneID 9369)?
CDH1-null / parental viability ratio: 1.1

What did the screen give for GABRA5 (GeneID 2558)?
CDH1-null / parental viability ratio: 1.13

For TRNAU1AP (GeneID 54952), what does the deposit list?
CDH1-null / parental viability ratio: 1.26

For ICE2 (GeneID 79664), what was measured?
CDH1-null / parental viability ratio: 1.28

With RTTN (GeneID 25914), how do the results read?
CDH1-null / parental viability ratio: 1.09

With PRRG1 (GeneID 5638), how do the results read?
CDH1-null / parental viability ratio: 0.84

What did the screen give for KRT77 (GeneID 374454)?
CDH1-null / parental viability ratio: 1.2

What is on record for ALG13 (GeneID 79868) #1?
CDH1-null / parental viability ratio: 0.86

Which result is listed for ALG13 (GeneID 79868) #2?
CDH1-null / parental viability ratio: 1.09

With VAMP4 (GeneID 8674), how do the results read?
CDH1-null / parental viability ratio: 1.04

With CPVL (GeneID 54504), what was measured?
CDH1-null / parental viability ratio: 1.14
